According to patent US6988446B2 (priority 1996, dated 2006):

Assay: general procedure: peptide synthesis; 2-chlorotrityl chloride resin
Settings: whole synthesis, HPLC

## Cit^1-BK
  purity (crude or final not stated): greater than 98% pure
